Assay results reported in the supplement of paper PMC3334620.
Whole data set: some 33,000 sequences, median “E-score (-0.5 to 0.5)” near -0.0014, cut for the highest 2% near 0.25. This is one part of the list.

Each sequence was assayed against T1, Cad1 (UniProt P24813) (assay: PBM E-score (8-mer binding enrichment) (E-score (-0.5 to 0.5)); higher = stronger / more preferred TF binding). Details: protein concentration: 100 nM; construct: GST-full length.
T1 sequence: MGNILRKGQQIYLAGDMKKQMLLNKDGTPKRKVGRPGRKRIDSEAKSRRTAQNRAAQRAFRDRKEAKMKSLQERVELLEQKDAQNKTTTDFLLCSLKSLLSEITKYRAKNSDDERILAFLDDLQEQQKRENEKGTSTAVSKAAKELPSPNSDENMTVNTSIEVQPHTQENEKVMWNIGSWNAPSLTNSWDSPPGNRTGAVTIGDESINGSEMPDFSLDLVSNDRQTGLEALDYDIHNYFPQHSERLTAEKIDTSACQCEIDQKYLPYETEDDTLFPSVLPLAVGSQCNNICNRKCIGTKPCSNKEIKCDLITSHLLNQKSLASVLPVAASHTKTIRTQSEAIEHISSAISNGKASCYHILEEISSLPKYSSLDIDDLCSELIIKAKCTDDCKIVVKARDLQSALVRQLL
Outline: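 The E-score, a modified Wilcoxon-Mann-Whitney statistic, was computed by the Universal PBM Analysis Suite for every ungapped eight-base word pooled with its reverse complement. Scans behind it were normalised with masliner after bound GST-tagged yeast transcription factors were detected with fluorescent anti-GST. The proteins, at about 100-200 nM, had been applied to universal all-10-mer Agilent arrays made double-stranded by primer extension.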

Sequence	PBM E-score
ACTTTTTA	0.0697
AAGATAAC	-0.0304
TGCCCTAA	-0.0822
CGGTGTCC	-0.00433
ACGTAGCT	-0.023
GCAGCGCC	-0.0428
ACTGCTCG	0.142
CTATTTAA	-0.0377
TAGGAATA	0.0519
ACATAGCA	0.00454
AGTTAAGG	0.0907
ATCGCGGG	0.0565
AGTCTGAG	-0.221
CCAGTACG	-0.0457
GCAGAAGA	-0.13
AGACATAA	0.0308
CTACGTGC	-0.164
ATTTTATG	0.255
GTCTTTAA	-0.0677
CCGTATAG	-0.0284
GGTTGTAA	0.0451
CCGAATGC	0.0712
TCCTAGCA	-0.134
TTCAAGAA	0.204
CGGGCCGA	-0.0993

A different layout for some results above.

| Sequence | PBM E-score |
| --- | --- |
| ATCGCGGG | 0.0565 |
| GCAGAAGA | -0.13 |
| CGGGCCGA | -0.0993 |

Further results

Sequence	PBM E-score
CTGCCAAG	-0.119
AGAAAAAG	-0.00974
CCTTCCCG	-0.167
GAAGGCCC	-0.127
GCGGGGAA	0.0456
AGGGAAGC	-0.222
TCGAGAAA	0.117
AGTCAGGA	0.141
CGTCAAGC	-0.0629
GTCCGTGA	0.0336
CGGGGGCC	-0.42
CACTCTGC	0.0146
AGACTGAT	-0.0163
GGTCGGTA	-0.127
GTGGACCA	0.0224
AATGTTCA	0.0735
CAAGAAGG	-0.144
CTAACCAC	0.0245
ACTGCTTC	-0.115
GATTGCCC	-0.0727
CGTTTGTC	0.0828
GATGCACC	0.0119
AGGACTAG	-0.039
AGTCCATC	-0.0953
GTCGCTTA	0.22

Sequence	PBM E-score
GTGCCCTA	-0.282
AATCCCAG	0.0625
CTAGCGAC	0.0304
TATCGGAA	0.143
AACATGAC	0.1
ACCTGGCT	-0.201
CGTCGCGA	0.111
GCAGTATA	-0.0191
GAGTACGA	0.0492
GCCATGGA	-0.0388
TCGGCTCA	-0.00735
TCCGTGCA	0.126
GTGATGGA	-0.0232
AGTACTGG	-0.0662
ACATCGTA	-0.0947
ATTAAAGA	0.175
TCGTTCCA	-0.157
ATGTTTGC	-0.0905
ACATACGA	0.117
CGTTCCAC	-0.109
ACACAGCG	0.251
AGGCCTGG	-0.135
TAGTCCAA	-0.103
GAGTAGCA	0.121
CAAGCCAA	-0.0331

Looked up above.
PBM E-score with ACATACGA is entered as 0.117
PBM E-score with CTACGTGC is entered as -0.164

(list continues)

Sequence	PBM E-score
CTTAATTA	0.152
CAGACTAC	-0.0227
CAACCTTA	-0.0594
ATAGACTC	-0.177
ATACAACG	0.128
ATCATTTC	0.136
AACACCAA	0.122
AGTACAAG	-0.092
AAAGGCAC	-0.0104
CGCGTCGA	0.123
ACAGCACG	-0.0152
ACCGAGCG	-0.0942
CTAAAACC	0.0774
CGGCCTAG	-0.263
ACGTACGT	-0.0167
ACTACTCA	0.146
CTGTACCC	-0.0355
GGTAAAGA	0.143
AATGAGTA	0.214
ATAGCCAA	0.167
GCGGTGCA	-0.201
ATTAAATG	0.23
AATTTTAA	0.249
GGTTCGCA	-0.035
CTGGCTTA	-0.104

Sequence	PBM E-score
CGTCTGAA	0.0655
CTATTAGC	0.176
ACGATTTG	0.105
AAATGCCC	-0.228
ACCTTCCG	0.033
AACTGGGT	-0.0949
CAGGAATA	-0.0481
GGTCCGTA	-0.0697
CATTTTCA	0.101
ACACTCCC	-0.237
CGGACCTA	0.162
GGAATAAA	0.0586
GGGTCCAA	-0.165
ATCATAAA	0.0876
TAAGTACA	0.0719
CCAAGTTA	0.033
TTCCGAAA	0.0116
ATTTAATC	0.285
AATGGCCT	0.0563
GGATGGAA	-0.0674
ACATCCGG	0.0635
GCTTGGGA	-0.244
CGGACGCC	-0.0696
ATCAGCAG	0.191
ACAGCGTC	0.0403

Sequence	PBM E-score
CACTGGAG	-0.168
AGGAGCCT	-0.34
GTGTCAAA	0.163
AAAGGCCG	-0.0244
ACGAGACA	-0.0322
ATACTTGG	-0.111
GGGGAGTA	-0.24
AATGGGTG	-0.0102
ATCTATGG	-0.242
CATTCCCG	0.144
ACTGTTCT	0.145
ATCAGTCG	0.117
CATTAACC	0.0603
ATGAATTA	0.107
CCTACGTC	-0.0661
AAAACCAA	0.0643
ATTCACTC	-0.0842
GACAAAAA	0.216
CGTTGCGC	0.176
GAATACAA	0.112
AGCGAAAT	-0.184
GCGAAAGA	-0.0989
ACGCCCTC	-0.067
ATTGGCTC	0.0265
ATCGGGGG	-0.474

Sequence	PBM E-score
CGAAGGTC	-0.15
AATTTAAG	0.0522
AATTCCAG	0.257
CATCCTCA	-0.13
CAGTGATA	0.0715
GTACGGGA	-0.196
AATCTCAC	-0.0928
ACATGTCC	0.0728
AAAAGCTT	-0.147
CAGTACAA	-0.0292
AAGAGAGA	-0.197
GCCGGTAC	0.00351
GTATACAA	0.127
GCGCATCC	-0.0757
CCATTGGG	-0.0892
GGCAGTAC	-0.177
ATTTCAAG	0.109
AGCGACCA	0.0127
CTCTGAAA	-0.00019
ATTAAGCC	0.176
CCGCCGAC	0.00504
ATCGAATC	0.122
